Experimental data taken from article PMC5835904.
Results are given in words; binding and its absence hold for the method and conditions named. In cells and extracts the contact can be indirect. Some entries that bind do so weakly or less than the wild type.

By UniProt entry, the sequences of proteins in these tests, tags left out. Where a name states a change or a piece, a line headed by the entry shows the natural chain unless it says otherwise. Residues count along the entry.
UniProt Q5S007: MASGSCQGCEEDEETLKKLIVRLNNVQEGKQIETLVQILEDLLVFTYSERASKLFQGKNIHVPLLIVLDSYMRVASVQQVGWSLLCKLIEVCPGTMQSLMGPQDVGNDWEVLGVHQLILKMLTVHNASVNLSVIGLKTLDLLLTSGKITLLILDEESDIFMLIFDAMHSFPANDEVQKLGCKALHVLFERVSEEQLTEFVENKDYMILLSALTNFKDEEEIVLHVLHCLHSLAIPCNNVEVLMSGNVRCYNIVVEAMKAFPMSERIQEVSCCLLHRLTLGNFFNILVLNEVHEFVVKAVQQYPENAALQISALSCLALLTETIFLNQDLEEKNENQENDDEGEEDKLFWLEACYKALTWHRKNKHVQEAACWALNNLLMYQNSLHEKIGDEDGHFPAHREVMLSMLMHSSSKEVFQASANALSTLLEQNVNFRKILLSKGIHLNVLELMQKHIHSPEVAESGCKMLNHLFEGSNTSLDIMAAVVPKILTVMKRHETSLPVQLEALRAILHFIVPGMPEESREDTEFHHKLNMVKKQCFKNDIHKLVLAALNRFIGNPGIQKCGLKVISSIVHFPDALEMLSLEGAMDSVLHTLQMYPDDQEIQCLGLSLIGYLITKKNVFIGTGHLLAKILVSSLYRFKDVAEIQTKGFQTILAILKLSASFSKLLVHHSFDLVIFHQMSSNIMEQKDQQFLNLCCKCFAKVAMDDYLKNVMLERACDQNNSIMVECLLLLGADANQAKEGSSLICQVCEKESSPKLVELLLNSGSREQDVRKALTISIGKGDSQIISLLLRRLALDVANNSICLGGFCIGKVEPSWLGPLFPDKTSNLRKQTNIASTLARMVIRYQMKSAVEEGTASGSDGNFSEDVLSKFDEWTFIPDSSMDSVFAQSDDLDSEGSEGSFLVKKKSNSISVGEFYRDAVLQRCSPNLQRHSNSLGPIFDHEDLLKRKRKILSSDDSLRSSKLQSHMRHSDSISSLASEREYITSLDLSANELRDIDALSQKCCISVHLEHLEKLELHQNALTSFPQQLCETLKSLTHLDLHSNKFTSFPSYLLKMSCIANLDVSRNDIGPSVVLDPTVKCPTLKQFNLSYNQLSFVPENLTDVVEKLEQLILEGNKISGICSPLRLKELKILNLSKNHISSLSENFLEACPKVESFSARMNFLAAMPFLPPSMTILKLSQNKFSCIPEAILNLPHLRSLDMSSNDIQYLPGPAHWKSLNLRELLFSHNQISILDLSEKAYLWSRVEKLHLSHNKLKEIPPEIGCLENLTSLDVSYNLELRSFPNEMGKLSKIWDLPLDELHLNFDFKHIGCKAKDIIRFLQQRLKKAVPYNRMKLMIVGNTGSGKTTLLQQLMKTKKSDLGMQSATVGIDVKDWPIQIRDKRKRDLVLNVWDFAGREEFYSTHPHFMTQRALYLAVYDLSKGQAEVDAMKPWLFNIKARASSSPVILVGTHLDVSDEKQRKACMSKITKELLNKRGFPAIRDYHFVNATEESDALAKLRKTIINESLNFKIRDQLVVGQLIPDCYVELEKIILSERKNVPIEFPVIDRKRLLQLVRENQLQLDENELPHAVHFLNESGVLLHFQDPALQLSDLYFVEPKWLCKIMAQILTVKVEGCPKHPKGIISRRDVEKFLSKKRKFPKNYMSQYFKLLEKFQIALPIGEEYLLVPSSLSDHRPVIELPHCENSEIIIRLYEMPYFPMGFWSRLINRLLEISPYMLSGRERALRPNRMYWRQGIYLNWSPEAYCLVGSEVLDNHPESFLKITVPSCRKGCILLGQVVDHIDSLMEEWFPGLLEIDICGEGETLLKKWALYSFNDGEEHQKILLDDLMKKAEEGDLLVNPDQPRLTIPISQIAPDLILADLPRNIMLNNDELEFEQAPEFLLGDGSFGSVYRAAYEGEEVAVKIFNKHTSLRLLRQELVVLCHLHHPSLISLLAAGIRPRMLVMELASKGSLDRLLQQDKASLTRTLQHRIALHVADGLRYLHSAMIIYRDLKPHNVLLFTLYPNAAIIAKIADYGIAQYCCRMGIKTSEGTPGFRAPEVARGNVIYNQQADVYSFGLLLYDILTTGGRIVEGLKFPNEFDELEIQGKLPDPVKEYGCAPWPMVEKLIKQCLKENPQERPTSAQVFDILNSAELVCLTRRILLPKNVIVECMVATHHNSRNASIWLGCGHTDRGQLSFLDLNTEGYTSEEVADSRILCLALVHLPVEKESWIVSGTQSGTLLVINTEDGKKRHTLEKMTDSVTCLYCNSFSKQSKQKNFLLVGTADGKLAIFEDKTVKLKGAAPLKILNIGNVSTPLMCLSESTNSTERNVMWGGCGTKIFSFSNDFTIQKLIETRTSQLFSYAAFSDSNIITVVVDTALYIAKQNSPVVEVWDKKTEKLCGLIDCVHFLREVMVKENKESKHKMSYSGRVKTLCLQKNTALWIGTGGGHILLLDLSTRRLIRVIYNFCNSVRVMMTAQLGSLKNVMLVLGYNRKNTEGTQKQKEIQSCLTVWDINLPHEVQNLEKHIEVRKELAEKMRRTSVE
GST-LRRK2 armadillo domain (aa 1-397) WT: residues 1-397 of Q5S007
UniProt P62258: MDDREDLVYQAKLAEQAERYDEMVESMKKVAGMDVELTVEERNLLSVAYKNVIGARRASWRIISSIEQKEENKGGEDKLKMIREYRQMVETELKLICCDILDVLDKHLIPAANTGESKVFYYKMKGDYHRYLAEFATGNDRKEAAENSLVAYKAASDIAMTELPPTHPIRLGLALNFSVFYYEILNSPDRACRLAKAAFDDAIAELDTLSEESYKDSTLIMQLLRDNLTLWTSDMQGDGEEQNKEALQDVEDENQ
UniProt Q8K1M6: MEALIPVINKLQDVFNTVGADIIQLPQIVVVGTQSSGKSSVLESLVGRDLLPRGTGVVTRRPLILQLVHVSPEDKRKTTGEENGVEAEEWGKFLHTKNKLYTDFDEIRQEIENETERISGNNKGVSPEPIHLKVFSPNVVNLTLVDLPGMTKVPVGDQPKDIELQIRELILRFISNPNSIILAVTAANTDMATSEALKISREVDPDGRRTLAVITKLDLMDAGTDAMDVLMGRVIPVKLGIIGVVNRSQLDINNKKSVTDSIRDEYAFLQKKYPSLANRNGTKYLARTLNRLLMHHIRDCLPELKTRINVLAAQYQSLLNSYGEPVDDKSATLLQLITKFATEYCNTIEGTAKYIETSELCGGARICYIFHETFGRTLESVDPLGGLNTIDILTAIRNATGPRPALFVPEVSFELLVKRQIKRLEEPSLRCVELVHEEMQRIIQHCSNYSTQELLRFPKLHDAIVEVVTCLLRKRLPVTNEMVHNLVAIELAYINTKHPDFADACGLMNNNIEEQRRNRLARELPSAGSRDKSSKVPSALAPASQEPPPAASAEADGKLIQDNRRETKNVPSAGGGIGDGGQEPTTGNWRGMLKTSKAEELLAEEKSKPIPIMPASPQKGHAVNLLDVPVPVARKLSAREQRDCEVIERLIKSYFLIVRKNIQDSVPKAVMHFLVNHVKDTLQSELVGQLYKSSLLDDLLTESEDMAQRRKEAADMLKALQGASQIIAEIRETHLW

How the values were obtained:
[1] = biological target: GST-LRRK2 armadillo domain (aa 1-397) WT (human) (UniProt Q5S007); experiment: pull-down; 5 μg GST fusion protein on glutathione-sepharose, incubated with adult mouse brain lysate (1 mg total protein); washed with 300 mM NaCl, 50 mM Tris-HCl pH 7.4; blot with anti-DRP1 and anti-P-Ser616 DRP1; only the target purified
[2] = biological target: Strep-FLAG 14-3-3ε (UniProt P62258); experiment: co-IP; N2A cells co-expressing FLAG-14-3-3ε and myc-LRRK2 variant; 14-3-3ε immobilised on anti-FLAG beads; bound myc-LRRK2 seen by western blot

Row | Substance | binding [1] | binding [2]
1 | DRP1 (total) from adult mouse brain lysate (from UniProt Q8K1M6 1-736) | binds | –
2 | phospho-616 DRP1 from adult mouse brain lysate (from UniProt Q8K1M6 1-736) | binds | –
3 | myc-tagged LRRK2 E193K variant (from UniProt Q5S007 1-2527) | – | binds
4 | myc-tagged LRRK2 WT (full-length myc-hLRRK2) (from UniProt Q5S007 1-2527) | – | binds
